From patent US20180318834A1, “INTEGRATION OF ELECTROCHECMICAL PH MODULATION WITH LAB ON A CHIP TECHNOLOGIES” (Robert Bosch GmbH, priority 2015, published 2018)

Test: Electrochemical modulation of pH at ITO working electrode, monitored by GFP fluorescence intensity
Format: physicochemical

For Cc1cc(O)ccc1O [2-methyl-1,4-dihydroquinone], which “solution pH after current-driven oxidation” value (50 microamps for 30 second, diluted phosphate buffer pH 7.4 with 0.1M Na2SO4, pH from GFP fluorescence) is on record?
The value was 5.5.

What about the “time for pH to recover to neutral value after current was turned off” value (diluted phosphate buffer pH 7.4 with 0.1M Na2SO4) of the same compound?
The value was ≤ 50 seconds.
